Assay results as given in PubChem BioAssay AID2685 (National Center for Advancing Translational Sciences (NCATS), 2010).
The other results are listed elsewhere or left out. These are further read-outs of the screen, such as a control signal, another cell line or another target. No call is given for them. The list favours compounds with an active or inconclusive main result. Potencies come from curve fits of mixed quality, noted in brackets.

Assay: qHTS Assay for Lipid Storage Modulators in Drosophila S3 Cells;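 for cell number change: cells counted by Cell Tracker Red CMTPX staining in the red channel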
Conditions: BODIPY lipid droplet fluorescence, 18-24 h; for cell number change: measured here: cell count max response, cells fed with added oleic acid
In short: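 Drosophila S3 cells got compounds at several concentrations plus oleic acid (400 uM solution). Laser-scanning cytometry with 488 nm excitation read lipid droplets at 500-530 nm and cells at 575-640 nm. Percent activity was relative to 20 uM Triacsin C.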

[1] = measured here: cell number channel AC50, cells fed with added oleic acid
[2] = measured here: lipid fluorescence (Fed channel) AC50, cells fed with added oleic acid

With `CCOC(=O)C1CCCN(C(=O)CCCOc2cc(=O)n(C)c3ccccc23)C1` (centres undefined) the cell number change was 131%, the AC50 [1] was 16.4 µM [rising, partial curve, poor fit] and the AC50 [2] was 6.51 µM [rising, single point].

With `Cc1nn(Cc2ccc([N+](=O)[O-])cc2)c(=O)n1N(C)c1ncc(C(F)(F)F)cc1Cl` the cell number change was 16.3% and the AC50 [2] was 2.59 µM [rising, partial curve].

With `c1cncc(C(c2nnnn2C2CCCC2)N2CCCC2)c1` (centres undefined) the cell number change was 11.8%, the AC50 [1] was 0.13 µM [rising, full curve] and the AC50 [2] was 0.146 µM [rising, full curve].

In the case of `O=C(CSc1nnc(CNC(=O)c2ccco2)o1)Nc1nc2ccccc2s1`, the cell number change is reported as -27.9% and the AC50 [2] is reported as 25.9 µM [falling, single point].

With `O=C(CSCc1n[nH]c(=O)[nH]1)NCCOc1cccc(Oc2ccccc2)c1` the cell number change was 2.43%.

Compound `Cc1ccc(S(=O)(=O)N(C)c2ccc(OCC(=O)Nc3ccc(C(=O)N(C)C)cc3)cc2)cc1C` has a cell number change of -6.84%.

In the case of `Cc1cccc2c(N=Nc3ccccc3)c(O)[nH]c12`, the cell number change is reported as 147% and the AC50 [1] is reported as 20.6 µM [rising, single point].

For `Brc1ccc(-c2nc3ncccn3c2NC2CCCCC2)o1`, the cell number change was 26.4%, the AC50 [1] was 4.11 µM [rising, single point] and the AC50 [2] was 16.4 µM [rising, partial curve].

`Cc1nnc(NC(=O)CSc2nnc(CCc3nc4ccccc4[nH]3)n2C)s1` showed a cell number change of 4.61%.

With `CSc1ccc(C2N=C(c3ccccc3)NO2)cc1` (centres undefined) the cell number change was 4.03% and the AC50 [2] was 2.91 µM [rising, single point].

In the case of `C/C(N)=C(/C#N)C(=O)COC(=O)CCC1CCCC1`, the cell number change is reported as -106% and the AC50 [1] is reported as 23.1 µM [falling, partial curve].

In the case of `COc1ccc(C(C#N)(CCC#N)CCC#N)cc1OC`, the cell number change is reported as 0.431% and the AC50 [2] is reported as 29.1 µM [falling, single point].

With `O=C(Cc1ccc(S(=O)(=O)N2CCOCC2)s1)Nc1ccc(N2CCOCC2)cc1` the cell number change was 50.7%.

In the case of `CCC(O)(C(=O)Nc1ccccc1C(F)(F)F)c1ccccc1OC` (centres undefined), the cell number change is reported as -6.75% and the AC50 [2] is reported as 29.1 µM [rising, single point].

For `COc1ccc(-n2c(SC(CN3CCCCC3)CN3CCCC3=O)nc3ccccc3c2=O)cc1` (centres undefined), the cell number change was -29.1% and the AC50 [2] was 10.3 µM [falling, partial curve].

In the case of `CCC(C(=O)OC)n1cnc2c(nnn2-c2cccc(OC)c2)c1=O` (centres undefined), the cell number change is reported as 51.4% and the AC50 [1] is reported as 10.3 µM [rising, partial curve, poor fit].

In the case of `O=C(CN1c2cccc3cccc(c23)S1(=O)=O)N1CCOCC1`, the cell number change is reported as 7.14% and the AC50 [2] is reported as 0.206 µM [falling, full curve].

In the case of `O=C(O)c1ccc2ncsc2c1`, the cell number change is reported as 1.93% and the AC50 [2] is reported as 0.103 µM [falling, full curve, poor fit].

In the case of `Cc1cc(C)c(C(=O)OCC(=O)NCc2cccs2)c(C)c1`, the cell number change is reported as 13.6% and the AC50 [2] is reported as 0.651 µM [rising, single point].

With `O=C(NCC(=O)N1CCCCCC1)c1ccc(Cl)cc1` the cell number change was 3.85% and the AC50 [2] was 20.6 µM [rising, single point].

With `COc1ccc(CCNC(=O)CSc2nnc3c(n2)[nH]c2ccc(F)cc23)cc1OC` the cell number change was 24.4% and the AC50 [2] was 6.51 µM [rising, single point].

In the case of `O=C(CCNS(=O)(=O)c1ccc(Cl)cc1)OCC(=O)c1ccc[nH]1`, the cell number change is reported as -20.4% and the AC50 [2] is reported as 0.146 µM [falling, full curve].

In the case of `CCCN(CC(=O)Nc1ccccc1C)C(=O)CCl`, the cell number change is reported as 55.8%, the AC50 [1] is reported as 23.1 µM [rising, single point] and the AC50 [2] is reported as 16.4 µM [rising, single point].

`Cc1ccccc1-c1nnn(CC(=O)Nc2ccc3c(c2)OCO3)n1` showed a cell number change of 0.579%.

With `O=C(COC(=O)c1cc(S(=O)(=O)N2CCCCC2)ccc1N1CCOCC1)NCCc1ccc(F)cc1` the cell number change was 65.1%, the AC50 [1] was 2.06 µM [rising, partial curve] and the AC50 [2] was 2.06 µM [rising, full curve].

With `COC(=O)c1ccccc1NC(=O)CN1CCC(NC(=O)c2ccccc2C)CC1` the cell number change was -12.9% and the AC50 [2] was 1.84 µM [rising, full curve, poor fit].

For `CCCCOC1(c2ccccc2)NC(=S)NN=C1c1ccccc1` (centres undefined), the cell number change was 62.8% and the AC50 [1] was 20.6 µM [rising, single point].

For `COc1cc(NC(=O)COC(=O)CNC(=O)C2CCCCC2)cc(OC)c1`, the cell number change was -2.47% and the AC50 [2] was 10.3 µM [rising, partial curve].

With `CCOc1ccc(S(=O)(=O)N2CCCCC2)cc1NC(=O)CN1CCCC1c1cccs1` (centres undefined) the cell number change was -1.85% and the AC50 [2] was 0.58 µM [falling, single point].

For `COc1ccccc1CNS(=O)(=O)c1c(C(=O)N2CCCCCC2)c(C)n(C)c1C`, the cell number change was -28.8% and the AC50 [2] was 7.31 µM [falling, partial curve].

With `COc1ccccc1-c1nnc(SCC(=O)Nc2ccc(N3CCOCC3)cc2)n1C` the cell number change was 38% and the AC50 [1] was 29.1 µM [rising, single point].

In the case of `O=C(NCCc1ccccc1F)[C@@H]1CSC2c3ccccc3C(=O)N21` (some centres undefined), the cell number change is reported as 15.8% and the AC50 [2] is reported as 0.146 µM [falling, full curve, poor fit].

In the case of `COCC(=O)Oc1c(S(=O)(=O)c2ccc(C)cc2)c(C)nn1C(C)(C)C`, the cell number change is reported as -32.4% and the AC50 [1] is reported as 0.00411 µM [rising, full curve, poor fit].

With `Cc1ccc(OC(=O)CCC(=O)N2CCc3ccccc32)cc1` the cell number change was 2.23% and the AC50 [2] was 0.146 µM [falling, full curve, poor fit].

With `Cc1ccc(N2CCN(C(=S)c3ccc(-c4ccccc4[N+](=O)[O-])o3)CC2)cc1` the cell number change was 14.9%, the AC50 [1] was 2.31 µM [rising, single point] and the AC50 [2] was 8.2 µM [rising, single point].

For `CCC(=O)N1CCc2cc(Br)cc(S(=O)(=O)NCC3CCCN3CC)c21` (centres undefined), the cell number change was -4.5% and the AC50 [1] was 0.651 µM [falling, full curve, poor fit].

In the case of `CCOC(=O)C1=C(C)C/C(=N\NC(=O)c2ccccc2O)CC1`, the cell number change is reported as -14.9% and the AC50 [2] is reported as 6.51 µM [falling, single point].

With `CC(C)NC(=O)CN1CCN(C(=O)CCl)CC1` the AC50 [1] was 0.731 µM [rising, full curve] and the AC50 [2] was 29.1 µM [falling, single point].

In the case of `CC(=O)Nc1ccc(NC(=O)C2CCN(S(=O)(=O)c3ccc4c(c3)OCCO4)CC2)cc1`, the cell number change is reported as 8.65% and the AC50 [2] is reported as 4.11 µM [rising, full curve].

With `Cc1nnc(SCC(=O)Nc2ccccc2)n1CCc1ccccc1` the cell number change was 22.8% and the AC50 [2] was 0.366 µM [rising, full curve].

With `COc1ccc(CCNC(=O)Nc2ccc(F)cc2F)cc1OC` the cell number change was -23.5% and the AC50 [2] was 7.31 µM [falling, partial curve].

In the case of `O=C(Nc1nnc(S(=O)(=O)N2CCCCCC2)s1)c1ccccc1Br`, the AC50 [2] is reported as 0.366 µM [rising, partial curve, poor fit].

In the case of `O=C(CN1C(=O)NC2(CCCC2)C1=O)Nc1ccc(F)cc1`, the cell number change is reported as 20.1% and the AC50 [2] is reported as 0.206 µM [rising, full curve, poor fit].

With `CCOC(=O)N1CCC(NC(=O)C2CCN(C(=O)c3cc4sccc4n3CC)CC2)CC1` the cell number change was -28.6% and the AC50 [2] was 4.11 µM [falling, single point].

In the case of `NC(=O)CSc1nnc(Cc2ccc3c(c2)OCO3)n1C1CCCCC1`, the cell number change is reported as -1.97% and the AC50 [2] is reported as 0.92 µM [rising, full curve].

Compound `COC(=O)c1ccccc1Sc1snnc1C` has a cell number change of -7.38%.

Work on `CCOc1ccc(NC(=O)/C(C#N)=C/c2ccc(N3CCCC3)c(C)c2)cc1` yielded a cell number change of 18.8%.

In the case of `CC1CN(CC(O)COC2CCC(C(C)(C)C)CC2)CC(C)O1` (centres undefined), the cell number change is reported as -11% and the AC50 [2] is reported as 2.91 µM [falling, partial curve].

For `CCOc1ccccc1-n1nnnc1SCC(=O)NC(=O)Nc1ccc2c(c1)OCCO2`, the cell number change was 3.65% and the AC50 [2] was 1.84 µM [falling, partial curve].

For `Cc1cc(=O)oc2c1c(C)nn2-c1ccc(Cl)cc1`, the cell number change was -48.3%, the AC50 [1] was 1.3 µM [falling, full curve, poor fit] and the AC50 [2] was 9.2 µM [falling, partial curve, poor fit].

With `Cc1ccc(N=Nc2c(O)ccc3n[nH]nc23)cc1` the cell number change was -70.5%, the AC50 [1] was 20.6 µM [falling, single point] and the AC50 [2] was 16.4 µM [falling, single point].

With `COc1ccc2[nH]c(=O)c(CN(Cc3cccnc3)C(=S)NCC3CCCO3)cc2c1` (centres undefined) the cell number change was 11.1% and the AC50 [2] was 1.03 µM [rising, partial curve, poor fit].

With `CCC(=O)N1N=C(c2c(-c3ccccc3)c3cc(Cl)ccc3[nH]c2=O)CC1c1ccco1` (centres undefined) the cell number change was -37.2% and the AC50 [1] was 11.6 µM [falling, single point].

For `CC1(C)C(=S)N(Cc2ccccc2)c2ccccc21`, the cell number change was -6.63% and the AC50 [2] was 6.51 µM [rising, single point].

For `CC(C)CC(=O)/C=C/n1c(=S)oc2ccccc21`, the AC50 [2] was 20.6 µM [falling, single point].

With `COc1cc(NC(=O)c2cc(-c3ccccc3)on2)cc(OC)c1OC` the cell number change was 8.09%.

With `CCOc1cc(S(=O)(=O)NCc2ccc3c(c2)OCO3)ccc1F` the cell number change was 7.03% and the AC50 [2] was 16.4 µM [rising, partial curve].

With `CCC1CCCCN1C(=O)COc1cc(=O)n(C)c2ccccc12` (centres undefined) the cell number change was -7.55% and the AC50 [2] was 0.326 µM [falling, full curve, poor fit].

With `CC(=O)Oc1ccc(C(=O)Nc2ccccc2C(=O)Nc2ccc(C(=O)O)cc2)cc1` the cell number change was -19.4% and the AC50 [2] was 3.66 µM [rising, single point].

With `CCCCN1C(=O)N(c2ccccc2Cl)C(C)(O)CC1(C)C` (centres undefined) the cell number change was -27.2%, the AC50 [1] was 3.66 µM [falling, full curve, poor fit] and the AC50 [2] was 4.11 µM [falling, full curve, poor fit].
